Results on 22 compounds are retold here after PubChem BioAssay AID248 (DTP/NCI, 2004).

In this assay the test system is L1210 leukemia ip in BDF1 mice, survival T/C. The experiment in a line: NCI In Vivo Anticancer Drug Screen. Data for tumor model L1210 Leukemia (intraperitoneal) in B6D2F1 (BDF1) mice. As to conditions: T/C endpoint: mean survival time, higher T/C = longer survival.
[1] abbreviates: dose: 400.0 mg/kg/injection, schedule: Q01DX009 (ip), vehicle: saline with Tween-80.
Setting [2] is: dose: 100.0 mg/kg/injection, schedule: Q01DX001 (ip), vehicle: saline.
Where [3] appears, read: dose: 400.0 mg/kg/injection, schedule: Q04DX003 (ip), vehicle: saline with Tween-80.
[4] abbreviates: dose: 400.0 mg/kg/injection, schedule: Q01DX001 (ip), vehicle: saline.
[5] abbreviates: dose: 200.0 mg/kg/injection, schedule: Q01DX001 (ip), vehicle: acetone.
[6] abbreviates: dose: 400.0 mg/kg/injection, schedule: Q01DX001 (ip), vehicle: acetone.
Where [7] appears, read: dose: 100.0 mg/kg/injection, schedule: Q04DX002 (ip), vehicle: saline with Tween-80.

The list is a part of this screen's results and no random one: it gathers tests that were run many times, whatever their T/C, doses with no T/C, and many T/C values between a quarter and a half above the control. Further doses and runs are listed elsewhere. T/C: endpoint of the treated group in % of that of the vehicle group. Some doses have a count of surviving animals in place of a T/C: the source files T/C as zero there, which appears to mark a toxic dose or a test without result, not a measured value. Some survivor counts are full or nearly so, which does not show that the dose was tolerated: the source hardly ever lists a survival T/C far under the control, and the zero likely stands for such cases as well. Counts of survivors are from the toxicity check (mostly the fifth day) where no day follows; animals may have died later. Schedules are NCI's codes, taken here to give the interval after Q, in days (D) or hours (H), and the number of doses after X. Some schedules carry Z or #; the key to these is not given. Where survival is the endpoint, the PubChem record calls one and a half times the control and up active, and a quarter to a half above the control has no call in these data; cut-offs in other NCI protocols can differ. Some T/C values are followed by the survivors on the day toxicity was checked, most often the fifth; without a count, all were alive then.

As to `CCCCOP1(=O)NC(=O)C=C(C)N1` (centres undefined), the survivor count was 3 of 3 (dose: 50.0 mg/kg/injection, schedule: Q01DX005 (ip), vehicle: saline); 2 of 3 (dose: 100.0 mg/kg/injection, schedule: Q01DX005 (ip), vehicle: saline); 3 of 3 (dose: 200.0 mg/kg/injection, schedule: Q01DX005 (ip), vehicle: saline).

As to `Cc1ccc(C(=O)NCCCOc2ccc(N)cc2Cl)cc1S(=O)(=O)F`, the survivor count under setting [1] is recorded as 3 of 6.

As for `CCOC(=O)Cc1cc(Cl)c2cc(C)ccc2n1`, the survivor count under setting [2] was 6 of 6 and the survivor count (dose: 200.0 mg/kg/injection, schedule: Q01DX001 (ip), vehicle: saline) is recorded as 6 of 6.

As for `O=C(Nc1ccc(/C=C/c2ccc(NC(=O)Nc3cccc(C4=NCCN4)c3)cc2)cc1)Nc1cccc(C2=NCCN2)c1`, for the setting “dose: 30.0 mg/kg/injection, schedule: Q01DX Z (ip), vehicle: carboxymethylcellulose (CMC)”, the survivor count is 6 of 6.

Consider `O=c1cnc2ccccc2[nH]1`, for which the survivor count under setting [3] was 3 of 3.

Consider `CC(C)(C)c1ccc(OCC(=O)O)c(Cl)c1`, for which the survivor count under setting [1] was 0 of 6.

Turning to `CC1CN1CCS(=O)(=O)CCN1CC1C` (centres undefined), the T/C (dose: 2.5 mg/kg/injection, schedule: Q01DX015 (ip), vehicle: carboxymethylcellulose (CMC)) is 129 % of control and the T/C (dose: 5.0 mg/kg/injection, schedule: Q01DX015 (ip), vehicle: carboxymethylcellulose (CMC)) was 128 % of control [5 of 6 alive]. Moreover, the survivor count reads like this: (dose: 20.0 mg/kg/injection, schedule: Q01DX015 (ip), vehicle: carboxymethylcellulose (CMC)) 5 of 6; (dose: 40.0 mg/kg/injection, schedule: Q01DX015 (ip), vehicle: carboxymethylcellulose (CMC)) 2 of 6.

Consider `CCCNC(=O)c1cc(NC(=O)Nc2ccc(C3=NCCN3)cc2)cc(NC(=O)Nc2ccc(C3=NCCN3)cc2)c1`, for which the T/C by setting is: (dose: 10.0 mg/kg/injection, schedule: Q01DX Z (ip), vehicle: carboxymethylcellulose (CMC)) 137 % of control; (dose: 21.0 mg/kg/injection, schedule: Q01DX Z (ip), vehicle: carboxymethylcellulose (CMC)) 128 % of control. In addition, the survivor count was 6 of 6 (dose: 84.0 mg/kg/injection, schedule: Q01DX Z (ip), vehicle: carboxymethylcellulose (CMC)) and 4 of 6 (dose: 168.0 mg/kg/injection, schedule: Q01DX Z (ip), vehicle: carboxymethylcellulose (CMC)).

On to `c1ccc(N=Nc2ccc[nH]2)cc1`, for which the survivor count (dose: 200.0 mg/kg/injection, schedule: Q01DX009 (ip), vehicle: acetone) is reported as 0 of 6.

With `Nc1ncnc2nc(I)[nH]c12`, the survivor count under setting [4] was 0 of 4.

For `[CH3][Ga]([CH3])[O]c1ccccc1C=O`, the survivor count was 2 of 6 (dose: 12.5 mg/kg/injection, schedule: Q04DX003 (ip), vehicle: DMSO); 1 of 6 (dose: 25.0 mg/kg/injection, schedule: Q04DX003 (ip), vehicle: DMSO); 0 of 6 (dose: 50.0 mg/kg/injection, schedule: Q04DX003 (ip), vehicle: DMSO); 0 of 6 (dose: 100.0 mg/kg/injection, schedule: Q04DX003 (ip), vehicle: DMSO); 0 of 6 (dose: 200.0 mg/kg/injection, schedule: Q04DX003 (ip), vehicle: DMSO); 0 of 6 (dose: 400.0 mg/kg/injection, schedule: Q04DX003 (ip), vehicle: DMSO).

For the compound `O=C(CCl)OCCI`, the survivor count by setting is: (dose: 50.0 mg/kg/injection, schedule: Q04DX003 (ip), vehicle: acetone) 6 of 6; (dose: 100.0 mg/kg/injection, schedule: Q04DX003 (ip), vehicle: acetone) 5 of 6; under setting [5], 1 of 6; under setting [6], 0 of 6.

Regarding `CCNC(Cc1ccccc1)c1ccco1` (centres undefined), the survivor count (dose: 200.0 mg/kg/injection, schedule: Q01DX009 (ip), vehicle: Klucel (hydroxypropylcellulose) (HPC)) is recorded as 0 of 6.

In the case of `CC(C)(N)CC(=O)Oc1ccccc1`, the survivor count is, setting by setting: (dose: 75.0 mg/kg/injection, schedule: Q04DX003 (ip), vehicle: saline) 6 of 6; (dose: 300.0 mg/kg/injection, schedule: Q01DX001 (ip), vehicle: saline) 0 of 6.

Turning to `CCC1(c2ccccc2)C(=O)N(C)C(=O)N(CBr)C1=O` (centres undefined), the survivor count under setting [1] is given as 0 of 3.

Turning to `C1CCC(CCNCCC2CCCCC2)CC1`, the survivor count reads like this: (dose: 40.0 mg/kg/injection, schedule: Q01DX001 (ip), vehicle: saline) 2 of 6; (dose: 80.0 mg/kg/injection, schedule: Q01DX001 (ip), vehicle: saline) 1 of 6.

Regarding `C[CH2][Ge]([CH2]C)[O][Ge]([CH2]C)[CH2]C.C[CH2][Ge]([CH2]C)[O][Ge]([CH2]C)[CH2]C`, the survivor count reads like this: under setting [7], 0 of 3; (dose: 200.0 mg/kg/injection, schedule: Q04DX002 (ip), vehicle: saline with Tween-80) 0 of 3; (dose: 400.0 mg/kg/injection, schedule: Q04DX002 (ip), vehicle: saline with Tween-80) 0 of 3.

Consider `O=[N+]([O-])c1ccc(OC(=S)Cl)cc1`, for which the survivor count runs as follows: (dose: 25.0 mg/kg/injection, schedule: Q04DX002 (ip), vehicle: saline with Tween-80) 3 of 3; (dose: 50.0 mg/kg/injection, schedule: Q04DX002 (ip), vehicle: saline with Tween-80) 3 of 3; under setting [7], 3 of 3; (dose: 200.0 mg/kg/injection, schedule: Q04DX003 (ip), vehicle: saline with Tween-80) 3 of 6; under setting [3], 3 of 6.

Turning to `Clc1ccc2c(c1)Cc1cc(N=Cc3ccccc3Cl)ccc1-2`, the survivor count is 6 of 6 (dose: 100.0 mg/kg/injection, schedule: Q01DX001 (ip), vehicle: acetone); 6 of 6 under setting [2]; 6 of 6 under setting [5]; 6 of 6 under setting [6]; 3 of 6 under setting [4]; 2 of 6 (dose: 510.0 mg/kg/injection, schedule: Q04DX003 (ip), vehicle: saline with Tween-80). Also, for the setting “dose: 770.0 mg/kg/injection, schedule: Q04DX003 (ip), vehicle: saline with Tween-80”, the survivor count is reported as 1 of 6.

On to `CCCCCCCCCCCCOC(=O)c1cc(O)c(O)c(O)c1`, for which the survivor count by setting is: (dose: 150.0 mg/kg/injection, schedule: Q01DX001 (ip), vehicle: acetone) 3 of 6; (dose: 300.0 mg/kg/injection, schedule: Q01DX001 (ip), vehicle: acetone) 1 of 6.

Consider `NC(N)=N/N=C/c1ccc(O)c(S(=O)(=O)O)c1`, for which the survivor count (dose: 240.0 mg/kg/injection, schedule: Q01DX Z (ip), vehicle: saline) is given as 6 of 6.

In the case of `CN(C)/N=C/c1nccc2ccccc12`, the survivor count under setting [4] is 0 of 4.
